Laboratory results published in article PMC6300487.
No constants are given. Whether binding was seen depends on the method and setting. Binding seen in cells or lysates may run through a third protein. Here binding means that the protein was enriched with, or labelled near, the bait; the list need not be complete. Sequences can lack the tags named with a protein.

By UniProt entry, the sequences of proteins in these tests, tags left out. Residues count along the entry.
UniProt P55786: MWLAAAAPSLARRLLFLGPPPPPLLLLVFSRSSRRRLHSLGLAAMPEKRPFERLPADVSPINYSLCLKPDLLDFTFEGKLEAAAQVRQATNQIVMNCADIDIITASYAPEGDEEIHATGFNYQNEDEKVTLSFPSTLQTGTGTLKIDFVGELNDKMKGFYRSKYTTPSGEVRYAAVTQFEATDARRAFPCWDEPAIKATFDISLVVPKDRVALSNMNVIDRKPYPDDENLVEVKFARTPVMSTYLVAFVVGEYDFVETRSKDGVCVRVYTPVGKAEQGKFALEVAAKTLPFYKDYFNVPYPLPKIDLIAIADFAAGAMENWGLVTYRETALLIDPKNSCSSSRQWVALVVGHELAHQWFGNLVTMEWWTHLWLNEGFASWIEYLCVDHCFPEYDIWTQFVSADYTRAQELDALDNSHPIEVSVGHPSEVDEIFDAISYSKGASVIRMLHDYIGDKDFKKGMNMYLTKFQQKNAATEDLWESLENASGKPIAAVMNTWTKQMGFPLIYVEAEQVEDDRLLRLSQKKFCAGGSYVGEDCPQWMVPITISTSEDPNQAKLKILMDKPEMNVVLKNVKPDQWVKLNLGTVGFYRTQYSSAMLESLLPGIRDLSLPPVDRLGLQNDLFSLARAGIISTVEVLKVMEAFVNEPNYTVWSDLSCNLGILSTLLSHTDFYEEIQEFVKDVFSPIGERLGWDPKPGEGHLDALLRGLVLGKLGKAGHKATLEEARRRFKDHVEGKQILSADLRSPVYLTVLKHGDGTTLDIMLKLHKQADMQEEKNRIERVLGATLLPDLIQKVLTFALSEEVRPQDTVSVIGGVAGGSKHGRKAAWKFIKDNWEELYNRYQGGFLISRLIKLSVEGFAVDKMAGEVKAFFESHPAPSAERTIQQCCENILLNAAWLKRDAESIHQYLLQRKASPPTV
UniProt Q7L576: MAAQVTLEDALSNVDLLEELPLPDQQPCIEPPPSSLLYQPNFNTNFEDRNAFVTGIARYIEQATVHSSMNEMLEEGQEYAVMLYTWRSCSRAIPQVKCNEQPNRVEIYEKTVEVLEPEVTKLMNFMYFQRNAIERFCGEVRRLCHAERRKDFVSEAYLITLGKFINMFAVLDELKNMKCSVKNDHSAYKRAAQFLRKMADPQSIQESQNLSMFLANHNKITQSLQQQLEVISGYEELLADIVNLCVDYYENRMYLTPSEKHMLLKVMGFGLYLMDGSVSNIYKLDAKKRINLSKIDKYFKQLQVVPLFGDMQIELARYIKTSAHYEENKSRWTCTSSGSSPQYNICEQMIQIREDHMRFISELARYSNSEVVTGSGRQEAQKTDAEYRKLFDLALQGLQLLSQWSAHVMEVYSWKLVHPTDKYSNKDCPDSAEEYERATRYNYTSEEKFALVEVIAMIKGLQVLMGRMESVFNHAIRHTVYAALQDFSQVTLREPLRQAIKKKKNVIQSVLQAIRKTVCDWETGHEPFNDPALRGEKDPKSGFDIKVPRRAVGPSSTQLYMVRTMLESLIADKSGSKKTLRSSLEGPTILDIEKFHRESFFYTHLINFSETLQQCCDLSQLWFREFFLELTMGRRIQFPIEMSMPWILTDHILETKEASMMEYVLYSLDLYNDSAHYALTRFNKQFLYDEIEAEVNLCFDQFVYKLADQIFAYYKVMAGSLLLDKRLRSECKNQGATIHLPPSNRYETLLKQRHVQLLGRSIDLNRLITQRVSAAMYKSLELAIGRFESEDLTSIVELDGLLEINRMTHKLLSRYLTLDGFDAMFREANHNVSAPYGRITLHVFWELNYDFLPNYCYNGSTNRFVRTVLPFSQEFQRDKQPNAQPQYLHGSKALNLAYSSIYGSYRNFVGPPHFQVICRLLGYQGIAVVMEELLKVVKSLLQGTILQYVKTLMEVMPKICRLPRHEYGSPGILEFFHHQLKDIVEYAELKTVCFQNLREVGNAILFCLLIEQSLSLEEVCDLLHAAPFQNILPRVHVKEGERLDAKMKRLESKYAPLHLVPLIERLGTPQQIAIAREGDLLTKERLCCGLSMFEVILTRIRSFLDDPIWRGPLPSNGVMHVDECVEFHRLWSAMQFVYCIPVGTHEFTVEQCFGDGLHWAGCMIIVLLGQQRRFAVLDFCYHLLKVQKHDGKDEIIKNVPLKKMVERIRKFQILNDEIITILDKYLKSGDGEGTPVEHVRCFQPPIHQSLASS
UniProt O14641: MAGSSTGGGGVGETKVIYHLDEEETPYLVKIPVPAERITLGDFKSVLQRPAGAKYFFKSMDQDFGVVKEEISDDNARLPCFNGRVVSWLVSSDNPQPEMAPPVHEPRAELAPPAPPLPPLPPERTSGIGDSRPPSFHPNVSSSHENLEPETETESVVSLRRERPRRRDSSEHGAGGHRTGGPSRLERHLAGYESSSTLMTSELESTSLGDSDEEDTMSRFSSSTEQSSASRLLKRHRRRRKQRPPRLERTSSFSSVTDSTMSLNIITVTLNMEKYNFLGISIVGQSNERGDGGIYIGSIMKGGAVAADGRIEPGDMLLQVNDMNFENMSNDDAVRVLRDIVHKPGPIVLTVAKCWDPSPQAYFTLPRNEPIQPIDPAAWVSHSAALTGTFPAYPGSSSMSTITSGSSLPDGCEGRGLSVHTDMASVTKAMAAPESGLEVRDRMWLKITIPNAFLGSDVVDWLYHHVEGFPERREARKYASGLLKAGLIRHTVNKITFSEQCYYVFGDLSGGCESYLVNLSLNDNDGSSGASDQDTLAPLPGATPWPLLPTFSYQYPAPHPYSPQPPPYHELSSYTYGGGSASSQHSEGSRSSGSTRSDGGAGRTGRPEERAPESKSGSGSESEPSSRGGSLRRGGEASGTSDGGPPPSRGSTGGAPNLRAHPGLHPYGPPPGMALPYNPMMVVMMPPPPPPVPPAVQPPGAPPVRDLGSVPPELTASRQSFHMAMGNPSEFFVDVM
UniProt Q06210: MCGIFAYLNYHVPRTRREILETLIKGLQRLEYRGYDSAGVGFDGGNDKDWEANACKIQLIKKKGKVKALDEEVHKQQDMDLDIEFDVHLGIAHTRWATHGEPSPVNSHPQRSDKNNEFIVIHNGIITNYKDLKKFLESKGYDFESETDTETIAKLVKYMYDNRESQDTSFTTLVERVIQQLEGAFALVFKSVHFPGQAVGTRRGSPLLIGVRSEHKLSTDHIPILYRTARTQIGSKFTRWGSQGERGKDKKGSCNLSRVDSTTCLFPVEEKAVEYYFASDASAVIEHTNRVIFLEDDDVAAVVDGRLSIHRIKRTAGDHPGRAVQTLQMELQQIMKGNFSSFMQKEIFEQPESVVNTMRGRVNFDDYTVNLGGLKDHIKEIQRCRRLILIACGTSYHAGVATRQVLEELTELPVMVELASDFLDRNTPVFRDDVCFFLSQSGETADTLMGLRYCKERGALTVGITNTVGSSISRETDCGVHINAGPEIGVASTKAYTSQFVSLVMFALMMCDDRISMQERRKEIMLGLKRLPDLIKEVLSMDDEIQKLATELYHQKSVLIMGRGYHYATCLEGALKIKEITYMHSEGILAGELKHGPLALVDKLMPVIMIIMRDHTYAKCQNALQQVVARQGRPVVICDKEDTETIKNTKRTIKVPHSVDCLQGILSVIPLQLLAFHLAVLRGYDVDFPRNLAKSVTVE
UniProt O14983: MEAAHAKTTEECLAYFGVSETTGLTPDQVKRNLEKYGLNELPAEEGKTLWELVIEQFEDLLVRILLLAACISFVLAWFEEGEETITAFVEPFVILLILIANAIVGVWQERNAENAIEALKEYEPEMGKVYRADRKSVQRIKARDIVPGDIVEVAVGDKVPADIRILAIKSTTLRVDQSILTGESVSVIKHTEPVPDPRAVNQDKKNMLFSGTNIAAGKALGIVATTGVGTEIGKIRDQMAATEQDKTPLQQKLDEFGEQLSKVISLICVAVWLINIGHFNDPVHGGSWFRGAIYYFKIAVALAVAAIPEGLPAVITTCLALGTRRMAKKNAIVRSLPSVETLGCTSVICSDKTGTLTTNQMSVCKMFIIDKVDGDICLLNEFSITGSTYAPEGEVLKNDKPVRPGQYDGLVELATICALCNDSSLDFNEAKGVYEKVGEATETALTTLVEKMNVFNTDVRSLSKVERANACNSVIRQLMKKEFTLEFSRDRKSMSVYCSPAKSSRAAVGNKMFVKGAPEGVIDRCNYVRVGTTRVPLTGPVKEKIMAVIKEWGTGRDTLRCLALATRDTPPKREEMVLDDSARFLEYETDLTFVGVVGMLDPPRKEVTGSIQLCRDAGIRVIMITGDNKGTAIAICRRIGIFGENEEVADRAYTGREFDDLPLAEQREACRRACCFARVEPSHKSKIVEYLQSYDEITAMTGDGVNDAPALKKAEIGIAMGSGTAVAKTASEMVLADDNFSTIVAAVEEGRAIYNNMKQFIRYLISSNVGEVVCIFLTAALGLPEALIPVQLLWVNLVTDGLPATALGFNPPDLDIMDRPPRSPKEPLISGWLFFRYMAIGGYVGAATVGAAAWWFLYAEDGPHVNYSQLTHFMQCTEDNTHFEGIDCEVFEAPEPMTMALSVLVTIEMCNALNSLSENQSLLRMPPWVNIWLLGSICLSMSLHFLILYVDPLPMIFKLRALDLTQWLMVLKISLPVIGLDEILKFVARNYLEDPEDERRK
UniProt Q13148: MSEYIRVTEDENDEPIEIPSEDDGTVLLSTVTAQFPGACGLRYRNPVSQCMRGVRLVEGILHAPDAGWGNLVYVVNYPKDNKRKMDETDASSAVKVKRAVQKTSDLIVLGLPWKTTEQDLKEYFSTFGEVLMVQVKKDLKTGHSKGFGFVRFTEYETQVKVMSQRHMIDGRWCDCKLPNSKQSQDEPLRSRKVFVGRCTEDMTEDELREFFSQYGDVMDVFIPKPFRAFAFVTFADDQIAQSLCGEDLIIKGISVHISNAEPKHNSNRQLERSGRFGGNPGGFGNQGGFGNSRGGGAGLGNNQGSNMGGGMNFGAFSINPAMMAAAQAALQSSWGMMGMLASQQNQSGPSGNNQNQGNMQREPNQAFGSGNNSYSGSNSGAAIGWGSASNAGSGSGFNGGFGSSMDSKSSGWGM
UniProt P40939, residues 37-763: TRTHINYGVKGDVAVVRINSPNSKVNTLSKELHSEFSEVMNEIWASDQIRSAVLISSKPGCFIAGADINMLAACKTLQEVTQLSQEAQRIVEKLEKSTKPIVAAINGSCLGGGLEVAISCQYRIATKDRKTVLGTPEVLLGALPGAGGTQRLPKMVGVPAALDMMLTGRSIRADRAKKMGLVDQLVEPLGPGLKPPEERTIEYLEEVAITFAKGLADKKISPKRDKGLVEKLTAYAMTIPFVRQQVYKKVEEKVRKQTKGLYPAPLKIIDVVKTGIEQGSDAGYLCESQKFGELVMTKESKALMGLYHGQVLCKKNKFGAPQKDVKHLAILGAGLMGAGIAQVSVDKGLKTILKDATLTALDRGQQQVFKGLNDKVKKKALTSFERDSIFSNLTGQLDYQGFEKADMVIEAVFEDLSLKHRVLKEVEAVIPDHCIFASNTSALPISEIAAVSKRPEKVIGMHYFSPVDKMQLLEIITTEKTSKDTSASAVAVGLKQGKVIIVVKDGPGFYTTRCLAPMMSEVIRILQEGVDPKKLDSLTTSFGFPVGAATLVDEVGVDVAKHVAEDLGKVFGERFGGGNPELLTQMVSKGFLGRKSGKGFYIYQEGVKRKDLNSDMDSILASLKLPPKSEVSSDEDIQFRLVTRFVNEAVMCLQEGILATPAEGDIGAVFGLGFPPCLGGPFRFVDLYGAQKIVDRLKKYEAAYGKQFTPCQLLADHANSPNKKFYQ
UniProt P51648: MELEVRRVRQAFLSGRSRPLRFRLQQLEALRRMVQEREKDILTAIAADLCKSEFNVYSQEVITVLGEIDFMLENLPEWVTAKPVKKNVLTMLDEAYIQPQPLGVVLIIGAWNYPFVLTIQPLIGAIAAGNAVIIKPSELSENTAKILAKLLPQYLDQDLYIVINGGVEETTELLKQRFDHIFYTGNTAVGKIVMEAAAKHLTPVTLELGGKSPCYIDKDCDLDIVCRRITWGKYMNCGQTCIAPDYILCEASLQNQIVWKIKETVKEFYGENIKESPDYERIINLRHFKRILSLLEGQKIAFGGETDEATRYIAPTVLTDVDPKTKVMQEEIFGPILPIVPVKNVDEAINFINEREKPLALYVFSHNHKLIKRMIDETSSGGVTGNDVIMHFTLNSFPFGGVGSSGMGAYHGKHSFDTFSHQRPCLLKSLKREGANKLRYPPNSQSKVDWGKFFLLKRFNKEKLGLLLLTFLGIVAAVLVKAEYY

T1: SFB-tagged WWOX (WW domain-containing oxidoreductase) (human) (UniProt Q9NZC7)
T1 sequence: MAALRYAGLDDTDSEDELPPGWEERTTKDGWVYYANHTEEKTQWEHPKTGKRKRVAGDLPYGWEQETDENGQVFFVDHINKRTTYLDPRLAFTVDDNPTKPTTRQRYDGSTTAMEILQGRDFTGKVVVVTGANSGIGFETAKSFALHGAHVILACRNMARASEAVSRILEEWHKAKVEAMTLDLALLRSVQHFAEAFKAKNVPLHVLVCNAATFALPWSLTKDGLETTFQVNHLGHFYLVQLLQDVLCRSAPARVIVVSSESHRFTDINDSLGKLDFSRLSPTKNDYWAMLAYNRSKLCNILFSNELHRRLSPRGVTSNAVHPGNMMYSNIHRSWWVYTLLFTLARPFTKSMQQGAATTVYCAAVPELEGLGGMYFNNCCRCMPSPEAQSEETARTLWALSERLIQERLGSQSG

B1: WW domain-binding protein 2 (protein, UniProt Q969T9 1-261)
chain: MALNKNHSEGGGVIVNNTESILMSYDHVELTFNDMKNVPEAFKGTKKGTVYLTPYRVIFLSKGKDAMQSFMMPFYLMKDCEIKQPVFGANYIKGTVKAEAGGGWEGSASYKLTFTAGGAIEFGQRMLQVASQASRGEVPSGAYGYSYMPSGAYVYPPPVANGMYPCPPGYPYPPPPPEFYPGPPMMDGAMGYVQPPPPPYPGPMEPPVSGPDVPSTPAAEAKAAEAAASAYYNPGNPHNVYMPTSQPPPPPYYPPEDKKTQ
B2: Histone PARylation Factor 1 (protein, UniProt Q9NWY4 1-346)
chain: MVGGGGKRRPGGEGPQCEKTTDVKKSKFCEADVSSDLRKEVENHYKLSLPEDFYHFWKFCEELDPEKPSDSLSASLGLQLVGPYDILAGKHKTKKKSTGLNFNLHWRFYYDPPEFQTIIIGDNKTQYHMGYFRDSPDEFPVYVGINEAKKNCIIVPNGDNVFAAVKLFLTKKLREITDKKKINLLKNIDEKLTEAARELGYSLEQRTVKMKQRDKKVVTKTFHGAGLVVPVDKNDVGYRELPETDADLKRICKTIVEAASDEERLKAFAPIQEMMTFVQFANDECDYGMGLELGMDLFCYGSHYFHKVAGQLLPLAYNLLKRNLFAEIIEEHLANRSQENIDQLAA
B3: Spartin (protein, UniProt Q8N0X7 1-666)
chain: MEQEPQNGEPAEIKIIREAYKKAFLFVNKGLNTDELGQKEEAKNYYKQGIGHLLRGISISSKESEHTGPGWESARQMQQKMKETLQNVRTRLEILEKGLATSLQNDLQEVPKLYPEFPPKDMCEKLPEPQSFSSAPQHAEVNGNTSTPSAGAVAAPASLSLPSQSCPAEAPPAYTPQAAEGHYTVSYGTDSGEFSSVGEEFYRNHSQPPPLETLGLDADELILIPNGVQIFFVNPAGEVSAPSYPGYLRIVRFLDNSLDTVLNRPPGFLQVCDWLYPLVPDRSPVLKCTAGAYMFPDTMLQAAGCFVGVVLSSELPEDDRELFEDLLRQMSDLRLQANWNRAEEENEFQIPGRTRPSSDQLKEASGTDVKQLDQGNKDVRHKGKRGKRAKDTSSEEVNLSHIVPCEPVPEEKPKELPEWSEKVAHNILSGASWVSWGLVKGAEITGKAIQKGASKLRERIQPEEKPVEVSPAVTKGLYIAKQATGGAAKVSQFLVDGVCTVANCVGKELAPHVKKHGSKLVPESLKKDKDGKSPLDGAMVVAASSVQGFSTVWQGLECAAKCIVNNVSAETVQTVRYKYGYNAGEATHHAVDSAVNVGVTAYNINNIGIKAMVKKTATQTGHTLLEDYQIVDNSQRENQEGAANVNVRGEKDEQTKEVKEAKKKDK
B4: DAZ Associated Protein 1 (protein, UniProt Q96EP5 1-407)
chain: MNNSGADEIGKLFVGGLDWSTTQETLRSYFSQYGEVVDCVIMKDKTTNQSRGFGFVKFKDPNCVGTVLASRPHTLDGRNIDPKPCTPRGMQPERTRPKEGWQKGPRSDNSKSNKIFVGGIPHNCGETELREYFKKFGVVTEVVMIYDAEKQRPRGFGFITFEDEQSVDQAVNMHFHDIMGKKVEVKRAEPRDSKSQAPGQPGASQWGSRVVPNAANGWAGQPPPTWQQGYGPQGMWVPAGQAIGGYGPPPAGRGAPPPPPPFTSYIVSTPPGGFPPPQGFPQGYGAPPQFSFGYGPPPPPPDQFAPPGVPPPPATPGAAPLAFPPPPSQAAPDMSKPPTAQPDFPYGQYAGYGQDLSGFGQGFSDPSQQPPSYGGPSVPGSGGPPAGGSGFGRGQNHNVQGFHPYRR
B5: Secretory Carrier Membrane Protein 3 (protein, UniProt O14828 1-347)
chain: MAQSRDGGNPFAEPSELDNPFQDPAVIQHRPSRQYATLDVYNPFETREPPPAYEPPAPAPLPPPSAPSLQPSRKLSPTEPKNYGSYSTQASAAAATAELLKKQEELNRKAEELDRRERELQHAALGGTATRQNNWPPLPSFCPVQPCFFQDISMEIPQEFQKTVSTMYYLWMCSTLALLLNFLACLASFCVETNNGAGFGLSILWVLLFTPCSFVCWYRPMYKAFRSDSSFNFFVFFFIFFVQDVLFVLQAIGIPGWGFSGWISALVVPKGNTAVSVLMLLVALLFTGIAVLGIVMLKRIHSLYRRTGASFQKAQQEFAAGVFSNPAVRTAAANAAAGAAENAFRAP
B6: Valyl-tRNA synthetase (VARS2) (protein, UniProt Q5ST30 27-1063)
chain: SVSTQSEPHGSPISRRNREAKQKRLREKQATLEAEIAGESKSPAESIKAWRPKELVLYEIPTKPGEKKDVSGPLPPAYSPRYVEAAWYPWWVREGFFKPEYQARLPQATGETFSMCIPPPNVTGSLHIGHALTVAIQDALVRWHRMRGDQVLWVPGSDHAGIATQAVVEKQLWKERGVRRHELSREAFLREVWQWKEAKGGEICEQLRALGASLDWDRECFTMDVGSSVAVTEAFVRLYKAGLLYRNHQLVNWSCALRSAISDIEVENRPLPGHTQLRLPGCPTPVSFGLLFSVAFPVDGEPDAEVVVGTTRPETLPGDVAVAVHPDDSRYTHLHGRQLRHPLMGQPLPLITDYAVQPHVGTGAVKVTPAHSPADAEMGARHGLSPLNVIAEDGTMTSLCGDWLQGLHRFVAREKIMSVLSEWGLFRGLQNHPMVLPICSRSGDVIEYLLKNQWFVRCQEMGARAAKAVESGALELSPSFHQKNWQHWFSHIGDWCVSRQLWWGHQIPAYLVVEDHAQGEEDCWVVGRSEAEAREVAAELTGRPGAELTLERDPDVLDTWFSSALFPFSALGWPQETPDLARFYPLSLLETGSDLLLFWVGRMVMLGTQLTGQLPFSKVLLHPMVRDRQGRKMSKSLGNVLDPRDIISGVEMQVLQEKLRSGNLDPAELAIVAAAQKKDFPHGIPECGTDALRFTLCSHGVQAGDLHLSVSEVQSCRHFCNKIWNALRFILNALGEKFVPQPAEELSPSSPMDAWILSRLALAAQECERGFLTRELSLVTHALHHFWLHNLCDVYLEAVKPVLWHSPRPLGPPQVLFSCADLGLRLLAPLMPFLAEELWQRLPPRPGCPPAPSISVAPYPSACSLEHWRQPELERRFSRVQEVVQVLRALRATYQLTKARPRVLLQSSEPGDQGLFEAFLEPLGTLGYCGAVGLLPPGAAAPSGWAQAPLSDTAQVYMELQGLVDPQIQLPLLAARRYKLQKQLDSLTARTPSEGEAGTQRQQKLSSLQLELSKLDKAASHLRQLMDEPPAPGSPEL
B7: TATA element modulatory factor 1 (protein, UniProt P82094 1-1093)
chain: MSWFNASQLSSFAKQALSQAQKSIDRVLDIQEEEPSIWAETIPYGEPGISSPVSGGWDTSTWGLKSNTEPQSPPIASPKAITKPVRRTVVDESENFFSAFLSPTDVQTIQKSPVVSKPPAKSQRPEEEVKSSLHESLHIGQSRTPETTESQVKDSSLCVSGETLAAGTSSPKTEGKHEETVNKESDMKVPTVSLKVSESVIDVKTTMESISNTSTQSLTAETKDIALEPKEQKHEDRQSNTPSPPVSTFSSGTSTTSDIEVLDHESVISESSASSRQETTDSKSSLHLMQTSFQLLSASACPEYNRLDDFQKLTESCCSSDAFERIDSFSVQSLDSRSVSEINSDDELSGKGYALVPIIVNSSTPKSKTVESAEGKSEEVNETLVIPTEEAEMEESGRSATPVNCEQPDILVSSTPINEGQTVLDKVAEQCEPAESQPEALSEKEDVCKTVEFLNEKLEKREAQLLSLSKEKALLEEAFDNLKDEMFRVKEESSSISSLKDEFTQRIAEAEKKVQLACKERDAAKKEIKNIKEELATRLNSSETADLLKEKDEQIRGLMEEGEKLSKQQLHNSNIIKKLRAKDKENENMVAKLNKKVKELEEELQHLKQVLDGKEEVEKQHRENIKKLNSMVERQEKDLGRLQVDMDELEEKNRSIQAALDSAYKELTDLHKANAAKDSEAQEAALSREMKAKEELSAALEKAQEEARQQQETLAIQVGDLRLALQRTEQAAARKEDYLRHEIGELQQRLQEAENRNQELSQSVSSTTRPLLRQIENLQATLGSQTSSWEKLEKNLSDRLGESQTLLAAAVERERAATEELLANKIQMSSMESQNSLLRQENSRFQAQLESEKNRLCKLEDENNRYQVELENLKDEYVRTLEETRKEKTLLNSQLEMERMKVEQERKKAIFTQETIKEKERKPFSVSSTPTMSRSSSISGVDMAGLQTSFLSQDESHDHSFGPMPISANGSNLYDAVRMGAGSSIIENLQSQLKLREGEITHLQLEIGNLEKTRSIMAEELVKLTNQNDELEEKVKEIPKLRTQLRDLDQRYNTILQMYGEKAEEAEELRLDLEDVKNMYKTQIDELLRQSLS
B8: Peflin (protein, UniProt Q9UBV8 1-284)
chain: MASYPYRQGCPGAAGQAPGAPPGSYYPGPPNSGGQYGSGLPPGGGYGGPAPGGPYGPPAGGGPYGHPNPGMFPSGTPGGPYGGAAPGGPYGQPPPSSYGAQQPGLYGQGGAPPNVDPEAYSWFQSVDSDHSGYISMKELKQALVNCNWSSFNDETCLMMINMFDKTKSGRIDVYGFSALWKFIQQWKNLFQQYDRDRSGSISYTELQQALSQMGYNLSPQFTQLLVSRYCPRSANPAMQLDRFIQVCTQLQVLTEAFREKDTAVQGNIRLSFEDFVTMTASRML

Target: T1, SFB-tagged WWOX (WW domain-containing oxidoreductase) (human)
Assay: affinity purification with mass spectrometry; tandem affinity purification from lysate (NETN buffer) of HEK293T cells stably expressing C-terminally SFB-tagged WWOX: streptavidin beads, elution with 2 mg/ml biotin, then S protein beads; LC-MS/MS; two replicates; hits filtered by MUSE interaction score and CRAPome frequency

binding, binds:
Puromycin-Sensitive Aminopeptidase (from UniProt P55786 1-919)
Cytoplasmic FMR1-interacting protein 1 (from UniProt Q7L576 1-1253)
Disheveled 2 (from UniProt O14641 1-736)
Ubiquitin carboxyl-terminal hydrolase 24 (from UniProt Q9UPU5 1-2620)
Glutamine-fructose-6-phosphate aminotransferase 1 (from UniProt Q06210 1-699)
Endoplasmic reticulum calcium ATPase 1 (from UniProt O14983 1-1001)
Stress Induced Phosphoprotein 1 (from UniProt P31948 1-543)
pyruvate dehydrogenase kinase 3 (human (endogenous in HEK293T))
TAR DNA-binding protein 43 (from UniProt Q13148 1-414)
Dynamin 1 Like protein (from UniProt O00429 1-736)
Trifunctional enzyme subunit alpha, mitochondrial (from UniProt P40939 37-763)
ALDH3A2 (from UniProt P51648 1-485)
B1
B2
B3
B4
B5
B6
B7
B8
